The other results are listed elsewhere or left out.
How the values were obtained:
Test in all cases: log2 fold change, soluble protein after heating vs DMSO (PISA); higher = thermal stabilisation; K562 cells, 10 uM, 30 min; active = over 0.2 and 3.5 SD of the protein, either way, in both replicates (recomputed)
ZNF787 = ZNF787 (UniProt Q6DD87)
How it was run: (§1)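 K562 cells at 2×10^6 cells/mL were treated with 10 μM compound for 30 min. Aliquots were heated for 3 min across 48°C-58°C, pooled, and extracted in PBS with 0.5% NP-40 at 4°C; soluble protein was the supernatant after 21,000xg for 90 min. Soluble protein was quantified by TMTpro 16plex LC-MS/MS with channel sums equalised, and reported as log2 fold change in thermal stability against DMSO controls, with values from duplicates.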

Chains of the proteins cited; added tags and fusions are not shown. Lines headed by an entry give the natural chain unless they say otherwise; changes in a name come on top.
UniProt Q6DD87: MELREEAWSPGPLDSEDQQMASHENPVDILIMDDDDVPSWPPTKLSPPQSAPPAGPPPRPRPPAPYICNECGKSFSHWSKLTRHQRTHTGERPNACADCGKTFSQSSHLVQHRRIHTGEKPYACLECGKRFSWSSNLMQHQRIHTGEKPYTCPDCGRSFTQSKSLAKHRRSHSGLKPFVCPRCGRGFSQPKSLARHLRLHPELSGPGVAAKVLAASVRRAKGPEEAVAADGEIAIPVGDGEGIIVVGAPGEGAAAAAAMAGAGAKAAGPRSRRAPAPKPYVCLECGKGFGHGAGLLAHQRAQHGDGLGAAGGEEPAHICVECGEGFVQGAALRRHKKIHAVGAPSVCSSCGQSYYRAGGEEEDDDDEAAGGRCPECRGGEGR
UniProt Q2TB10: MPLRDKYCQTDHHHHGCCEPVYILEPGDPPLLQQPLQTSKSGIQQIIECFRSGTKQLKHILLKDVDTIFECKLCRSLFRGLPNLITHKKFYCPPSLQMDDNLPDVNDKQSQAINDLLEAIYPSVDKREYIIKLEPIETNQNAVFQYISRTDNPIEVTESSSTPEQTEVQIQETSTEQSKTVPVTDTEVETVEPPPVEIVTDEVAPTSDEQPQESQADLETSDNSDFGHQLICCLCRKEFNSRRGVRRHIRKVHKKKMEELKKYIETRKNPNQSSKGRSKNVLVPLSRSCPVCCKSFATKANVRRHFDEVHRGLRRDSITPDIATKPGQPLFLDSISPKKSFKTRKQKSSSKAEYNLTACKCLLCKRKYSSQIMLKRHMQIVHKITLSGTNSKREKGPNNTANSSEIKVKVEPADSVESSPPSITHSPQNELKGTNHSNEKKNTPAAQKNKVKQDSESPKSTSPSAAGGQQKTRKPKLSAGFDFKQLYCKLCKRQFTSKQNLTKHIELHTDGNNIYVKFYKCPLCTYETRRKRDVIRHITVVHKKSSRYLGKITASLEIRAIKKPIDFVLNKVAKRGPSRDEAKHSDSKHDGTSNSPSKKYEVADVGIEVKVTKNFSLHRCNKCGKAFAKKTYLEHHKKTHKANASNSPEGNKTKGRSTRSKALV
UniProt Q96NB3: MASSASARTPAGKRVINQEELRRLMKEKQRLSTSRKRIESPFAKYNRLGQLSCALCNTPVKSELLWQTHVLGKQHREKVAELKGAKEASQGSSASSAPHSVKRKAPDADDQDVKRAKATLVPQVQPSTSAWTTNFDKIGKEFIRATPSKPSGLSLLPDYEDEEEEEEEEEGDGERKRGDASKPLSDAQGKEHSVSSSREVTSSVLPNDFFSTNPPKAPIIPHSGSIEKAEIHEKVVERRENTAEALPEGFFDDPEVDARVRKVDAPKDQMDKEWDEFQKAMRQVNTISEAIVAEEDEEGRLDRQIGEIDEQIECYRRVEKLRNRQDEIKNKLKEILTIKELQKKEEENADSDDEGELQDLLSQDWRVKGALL
UniProt Q6ZMS4: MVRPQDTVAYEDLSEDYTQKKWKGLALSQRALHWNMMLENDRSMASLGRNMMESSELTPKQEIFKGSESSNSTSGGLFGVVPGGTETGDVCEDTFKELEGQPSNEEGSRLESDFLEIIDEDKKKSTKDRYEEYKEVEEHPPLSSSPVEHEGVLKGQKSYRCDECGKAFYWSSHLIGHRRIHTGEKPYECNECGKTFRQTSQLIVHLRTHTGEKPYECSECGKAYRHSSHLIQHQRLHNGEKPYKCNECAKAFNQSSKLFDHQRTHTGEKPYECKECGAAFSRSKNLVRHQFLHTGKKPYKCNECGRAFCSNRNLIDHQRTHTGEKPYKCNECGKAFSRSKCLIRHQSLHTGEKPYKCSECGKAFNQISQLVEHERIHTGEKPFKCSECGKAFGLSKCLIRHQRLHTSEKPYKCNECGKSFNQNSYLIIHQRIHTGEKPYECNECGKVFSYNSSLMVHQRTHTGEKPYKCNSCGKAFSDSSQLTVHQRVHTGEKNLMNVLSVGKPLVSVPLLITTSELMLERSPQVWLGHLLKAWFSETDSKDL
UniProt O43257, whole entry, looked up: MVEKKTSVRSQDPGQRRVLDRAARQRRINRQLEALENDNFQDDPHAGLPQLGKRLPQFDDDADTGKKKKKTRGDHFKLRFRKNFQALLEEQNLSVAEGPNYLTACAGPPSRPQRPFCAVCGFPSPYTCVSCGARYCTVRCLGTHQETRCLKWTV
UniProt Q9UHR6: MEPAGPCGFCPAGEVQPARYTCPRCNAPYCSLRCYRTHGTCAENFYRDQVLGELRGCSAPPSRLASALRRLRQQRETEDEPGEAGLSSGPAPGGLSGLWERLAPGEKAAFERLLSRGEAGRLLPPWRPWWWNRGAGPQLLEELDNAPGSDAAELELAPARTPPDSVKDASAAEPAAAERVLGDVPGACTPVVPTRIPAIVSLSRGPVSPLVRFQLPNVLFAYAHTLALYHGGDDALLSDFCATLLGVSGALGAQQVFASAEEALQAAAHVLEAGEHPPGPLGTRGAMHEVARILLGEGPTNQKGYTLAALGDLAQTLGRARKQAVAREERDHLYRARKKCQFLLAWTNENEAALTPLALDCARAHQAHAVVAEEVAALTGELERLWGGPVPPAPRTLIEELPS
UniProt Q15649: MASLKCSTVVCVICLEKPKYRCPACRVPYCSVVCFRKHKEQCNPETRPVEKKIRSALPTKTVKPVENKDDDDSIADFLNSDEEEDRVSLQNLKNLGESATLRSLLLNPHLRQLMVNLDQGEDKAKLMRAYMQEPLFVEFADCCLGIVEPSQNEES
UniProt Q9P1U0, whole entry, looked up: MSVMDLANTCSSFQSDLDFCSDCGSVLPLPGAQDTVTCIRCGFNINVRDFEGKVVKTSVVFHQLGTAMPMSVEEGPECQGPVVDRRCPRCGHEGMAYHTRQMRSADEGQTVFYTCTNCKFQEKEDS
UniProt O60232: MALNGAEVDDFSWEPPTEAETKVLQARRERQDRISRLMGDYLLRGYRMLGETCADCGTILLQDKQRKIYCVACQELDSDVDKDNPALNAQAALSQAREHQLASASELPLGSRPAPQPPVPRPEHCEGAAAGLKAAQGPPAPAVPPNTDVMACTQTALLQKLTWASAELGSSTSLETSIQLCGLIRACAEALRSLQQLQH
UniProt Q8ND25: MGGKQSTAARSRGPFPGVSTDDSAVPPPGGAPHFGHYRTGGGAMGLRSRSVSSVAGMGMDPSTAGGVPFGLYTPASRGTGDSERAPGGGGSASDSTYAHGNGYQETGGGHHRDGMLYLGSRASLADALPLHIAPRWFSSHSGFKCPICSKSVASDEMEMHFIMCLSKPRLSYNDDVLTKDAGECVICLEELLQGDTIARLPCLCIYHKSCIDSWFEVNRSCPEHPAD
UniProt Q8NHG8: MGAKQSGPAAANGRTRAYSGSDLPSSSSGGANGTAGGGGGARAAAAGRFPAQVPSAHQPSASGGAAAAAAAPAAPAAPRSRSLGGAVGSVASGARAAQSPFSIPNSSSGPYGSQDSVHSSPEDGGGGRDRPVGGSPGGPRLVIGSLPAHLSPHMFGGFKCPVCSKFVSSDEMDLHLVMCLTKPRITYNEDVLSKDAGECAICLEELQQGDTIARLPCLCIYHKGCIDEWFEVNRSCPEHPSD
UniProt O75312: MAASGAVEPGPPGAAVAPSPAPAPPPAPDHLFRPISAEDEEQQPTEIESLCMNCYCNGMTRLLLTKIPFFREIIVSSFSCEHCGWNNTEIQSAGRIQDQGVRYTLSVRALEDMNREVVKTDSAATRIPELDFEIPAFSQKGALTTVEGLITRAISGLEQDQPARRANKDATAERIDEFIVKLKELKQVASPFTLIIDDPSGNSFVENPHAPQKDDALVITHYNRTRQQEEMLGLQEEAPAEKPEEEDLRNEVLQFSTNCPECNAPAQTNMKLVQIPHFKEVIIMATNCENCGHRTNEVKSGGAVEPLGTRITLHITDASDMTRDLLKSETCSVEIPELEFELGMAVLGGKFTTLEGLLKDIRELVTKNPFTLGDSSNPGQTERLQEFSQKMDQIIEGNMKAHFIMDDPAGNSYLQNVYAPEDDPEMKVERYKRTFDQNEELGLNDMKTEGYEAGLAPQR
UniProt O95218: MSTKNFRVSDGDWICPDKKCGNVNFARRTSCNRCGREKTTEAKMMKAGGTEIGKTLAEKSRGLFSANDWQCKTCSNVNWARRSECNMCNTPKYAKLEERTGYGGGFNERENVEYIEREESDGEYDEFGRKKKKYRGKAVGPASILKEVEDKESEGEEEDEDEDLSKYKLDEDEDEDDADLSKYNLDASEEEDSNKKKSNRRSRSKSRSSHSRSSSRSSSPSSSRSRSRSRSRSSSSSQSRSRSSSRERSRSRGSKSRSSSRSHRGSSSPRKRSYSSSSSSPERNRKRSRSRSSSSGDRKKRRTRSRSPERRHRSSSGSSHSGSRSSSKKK
UniProt O43264: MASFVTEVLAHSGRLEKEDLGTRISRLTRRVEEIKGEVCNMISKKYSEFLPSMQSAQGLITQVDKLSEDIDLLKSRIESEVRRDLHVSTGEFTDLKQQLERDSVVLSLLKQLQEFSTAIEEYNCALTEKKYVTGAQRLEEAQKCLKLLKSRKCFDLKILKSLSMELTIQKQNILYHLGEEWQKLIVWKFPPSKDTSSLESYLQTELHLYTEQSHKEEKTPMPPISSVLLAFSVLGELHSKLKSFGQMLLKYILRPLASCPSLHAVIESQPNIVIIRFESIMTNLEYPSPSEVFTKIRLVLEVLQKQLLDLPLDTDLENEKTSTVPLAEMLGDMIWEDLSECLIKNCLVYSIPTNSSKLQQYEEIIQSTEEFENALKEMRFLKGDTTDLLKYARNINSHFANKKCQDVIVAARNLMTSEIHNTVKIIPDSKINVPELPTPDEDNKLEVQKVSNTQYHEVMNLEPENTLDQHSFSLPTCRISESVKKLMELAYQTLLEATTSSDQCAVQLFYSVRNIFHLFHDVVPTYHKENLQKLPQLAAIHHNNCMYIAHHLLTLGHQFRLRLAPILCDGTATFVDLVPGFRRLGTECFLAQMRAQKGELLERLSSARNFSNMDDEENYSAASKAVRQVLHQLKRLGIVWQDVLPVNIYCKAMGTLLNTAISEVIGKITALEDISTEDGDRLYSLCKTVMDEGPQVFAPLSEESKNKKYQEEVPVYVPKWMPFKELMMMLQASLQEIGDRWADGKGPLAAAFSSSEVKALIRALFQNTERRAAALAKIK
UniProt Q9NWK9: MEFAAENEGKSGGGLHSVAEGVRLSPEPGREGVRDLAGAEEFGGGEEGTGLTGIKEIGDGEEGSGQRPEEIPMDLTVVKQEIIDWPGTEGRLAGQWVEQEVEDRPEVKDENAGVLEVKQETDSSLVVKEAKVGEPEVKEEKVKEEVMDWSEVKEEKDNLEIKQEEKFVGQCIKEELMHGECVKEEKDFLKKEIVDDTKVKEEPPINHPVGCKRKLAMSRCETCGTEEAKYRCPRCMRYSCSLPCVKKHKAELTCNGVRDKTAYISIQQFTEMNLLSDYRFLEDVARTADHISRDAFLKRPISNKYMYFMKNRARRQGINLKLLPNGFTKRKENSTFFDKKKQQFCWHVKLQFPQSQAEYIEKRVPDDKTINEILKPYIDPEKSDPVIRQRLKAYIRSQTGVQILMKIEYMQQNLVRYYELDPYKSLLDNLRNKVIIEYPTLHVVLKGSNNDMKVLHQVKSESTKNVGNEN
UniProt Q19AV6: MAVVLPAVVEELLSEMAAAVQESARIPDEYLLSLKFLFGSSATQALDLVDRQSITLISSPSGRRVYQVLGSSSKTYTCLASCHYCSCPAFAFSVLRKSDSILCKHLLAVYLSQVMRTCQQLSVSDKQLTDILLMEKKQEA
UniProt Q16670: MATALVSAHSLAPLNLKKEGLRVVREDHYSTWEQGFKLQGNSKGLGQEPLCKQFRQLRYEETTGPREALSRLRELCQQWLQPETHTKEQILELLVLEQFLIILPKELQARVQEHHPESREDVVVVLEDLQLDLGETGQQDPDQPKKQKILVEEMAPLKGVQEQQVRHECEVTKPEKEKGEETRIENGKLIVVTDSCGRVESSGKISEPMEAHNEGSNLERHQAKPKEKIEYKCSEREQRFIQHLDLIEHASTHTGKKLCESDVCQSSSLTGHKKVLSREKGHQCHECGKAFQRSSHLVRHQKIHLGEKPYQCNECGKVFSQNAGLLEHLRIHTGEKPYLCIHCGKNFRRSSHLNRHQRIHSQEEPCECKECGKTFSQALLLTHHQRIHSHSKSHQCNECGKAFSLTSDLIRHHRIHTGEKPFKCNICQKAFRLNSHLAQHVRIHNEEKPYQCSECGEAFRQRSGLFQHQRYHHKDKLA

ZNF800 = ZNF800 (UniProt Q2TB10)
How it was run: as §1

ZNF830 = ZNF830 (UniProt Q96NB3)
How it was run: as §1

ZNF852 = ZNF852 (UniProt Q6ZMS4)
How it was run: as §1

ZNHIT1 = ZNHIT1 (UniProt O43257)
How it was run: as §1

ZNHIT2 = ZNHIT2 (UniProt Q9UHR6)
How it was run: as §1

ZNHIT3 = ZNHIT3 (UniProt Q15649)
How it was run: as §1

ZNRD1 = ZNRD1 (UniProt Q9P1U0)
How it was run: as §1

ZNRD2 [1] = molecular target: ZNRD2 (UniProt G3V1B8)
How it was run: as §1

ZNRD2 [2] = molecular target: ZNRD2 (UniProt O60232)
How it was run: as §1

ZNRF1 isoform 2 = ZNRF1 isoform 2 (UniProt Q8ND25)
How it was run: as §1

ZNRF2 = ZNRF2 (UniProt Q8NHG8)
How it was run: as §1

ZPR1 = ZPR1 (UniProt O75312)
How it was run: as §1

ZRANB2 = ZRANB2 (UniProt O95218)
How it was run: as §1

ZW10 = ZW10 (UniProt O43264)
How it was run: as §1

ZNHIT6 = ZNHIT6 (UniProt Q9NWK9)
How it was run: as §1

ZSWIM7 = ZSWIM7 (UniProt Q19AV6)
How it was run: as §1

ZSCAN26 = ZSCAN26 (UniProt Q16670)
How it was run: as §1

Measured: log2 fold change

NC1(c2ccc(-c3nc4ccn5c(=O)[nH]nc5c4cc3-c3ccccc3)cc2)CCC1
inactive: ZNF787 = 0.165 | ZNF800 = 0.211 | ZNF830 = 0.023 | ZNF852 = 0.343 | ZNHIT1 = 0.194 | ZNHIT2 = 0.145 | ZNHIT3 = 0.006 | ZNRD1 = 0.066 | ZNRD2 [1] 0.288 | ZNRD2 [2] -0.002 | ZNRF1 isoform 2 = 0.112 | ZNRF2 = 0.071 | ZPR1 = -0.064 | ZRANB2 = 0.046 | ZW10 = -0.141

Cc1cc(Nc2cc(CN3CCOCC3)c3nc(C)c(Cc4ccc(Cl)cc4F)n3n2)n[nH]1 [gandotinib]
inactive: ZNF787 = 0.114 | ZNF800 = 0.178 | ZNF830 = 0.082 | ZNHIT1 = 0.049 | ZNHIT2 = 0.235 | ZNHIT3 = 0.041 | ZNHIT6 = -0.081 | ZNRD1 = 0.035 | ZNRD2 [2] 0.019 | ZNRF1 isoform 2 = 0.034 | ZNRF2 = 0.013 | ZPR1 = 0.014 | ZRANB2 = 0.064 | ZW10 = -0.108

CC(C)(C)Cn1c(N)nc2ccc(-c3[nH]c(C(C)(C)C)nc3-c3ccc(F)cc3)nc21 [ralimetinib]
inactive: ZNF787 = 0.142 | ZNF830 = -0.047 | ZNF852 = -0.136 | ZNHIT2 = 0.176 | ZNHIT3 = -0.141 | ZNRD1 = 0.027 | ZNRD2 [1] -0.087 | ZNRD2 [2] -0.079 | ZNRF1 isoform 2 = 0.043 | ZNRF2 = -0.034 | ZPR1 = -0.061 | ZRANB2 = -0.014 | ZW10 = 0.032

O=C1c2ccccc2-c2n[nH]c3cccc1c23
inactive: ZNF787 = 0 | ZNF830 = 0.014 | ZNHIT1 = -0.111 | ZNHIT3 = -0.104 | ZNHIT6 = -0.208 | ZNRD1 = -0.189 | ZNRD2 [1] 0.028 | ZNRD2 [2] -0.041 | ZNRF1 isoform 2 = -0.099 | ZNRF2 = -0.004 | ZPR1 = 0.004 | ZRANB2 = -0.059 | ZW10 = -0.031

C#Cc1cccc(Nc2ncnc3cc(OCCOC)c(OCCOC)cc23)c1 [erlotinib]
inactive: ZNF787 = -0.145 | ZNF830 = 0.008 | ZNF852 = -0.051 | ZNHIT1 = 0.086 | ZNHIT3 = -0.021 | ZNHIT6 = -0.02 | ZNRD1 = 0.049 | ZNRD2 [1] 0.153 | ZNRD2 [2] -0.039 | ZNRF1 isoform 2 = -0.09 | ZNRF2 = 0.052 | ZPR1 = -0.01 | ZRANB2 = 0.005 | ZSWIM7 = 0.02 | ZW10 = 0.016

CCCS(=O)(=O)Nc1ccc(F)c(C(=O)c2c[nH]c3ncc(Cl)cc23)c1F
inactive: ZNF787 = -0.022 | ZNF830 = 0.068 | ZNF852 = -0.121 | ZNHIT2 = 0.091 | ZNHIT3 = -0.123 | ZNHIT6 = 0.001 | ZNRD1 = 0.014 | ZNRD2 [2] -0.06 | ZNRF1 isoform 2 = -0.087 | ZNRF2 = -0.054 | ZPR1 = 0.016 | ZRANB2 = -0.02 | ZSCAN26 = -0.107 | ZW10 = 0.053

CN(CCOc1ccc(C[C@@H]2SC(=O)NC2=O)cc1)c1ccccn1 (racemic) [rosiglitazone]
inactive: ZNF787 = -0.085 | ZNF830 = -0.01 | ZNHIT1 = 0.081 | ZNHIT3 = -0.03 | ZNHIT6 = -0.038 | ZNRD1 = -0.22 | ZNRD2 [1] -0.043 | ZNRD2 [2] 0.005 | ZNRF1 isoform 2 = -0.136 | ZNRF2 = -0.009 | ZPR1 = 0.017 | ZSWIM7 = -0.057

Looked up by structure from above (two):
C#Cc1cccc(Nc2ncnc3cc(OCCOC)c(OCCOC)cc23)c1 [erlotinib]
inactive: ZNF787 = -0.145 | ZNF830 = 0.008 | ZNF852 = -0.051 | ZNHIT1 = 0.086 | ZNHIT3 = -0.021 | ZNHIT6 = -0.02 | ZNRD1 = 0.049 | ZNRD2 [1] 0.153 | ZNRD2 [2] -0.039 | ZNRF1 isoform 2 = -0.09 | ZNRF2 = 0.052 | ZPR1 = -0.01 | ZRANB2 = 0.005 | ZSWIM7 = 0.02 | ZW10 = 0.016

CN(CCOc1ccc(C[C@@H]2SC(=O)NC2=O)cc1)c1ccccn1 (racemic) [rosiglitazone]
inactive: ZNF787 = -0.085 | ZNF830 = -0.01 | ZNHIT1 = 0.081 | ZNHIT3 = -0.03 | ZNHIT6 = -0.038 | ZNRD1 = -0.22 | ZNRD2 [1] -0.043 | ZNRD2 [2] 0.005 | ZNRF1 isoform 2 = -0.136 | ZNRF2 = -0.009 | ZPR1 = 0.017 | ZSWIM7 = -0.057

(next part)

NC(=O)c1cnc(N[C@@H]2CCCC[C@@H]2N)nc1Nc1cccc(-n2nccn2)c1
inactive: ZNF787 = 0 | ZNF830 = 0.036 | ZNHIT1 = -0.151 | ZNHIT3 = 0.063 | ZNHIT6 = 0.004 | ZNRD1 = 0.103 | ZNRD2 [1] 0.064 | ZNRD2 [2] 0.037 | ZNRF1 isoform 2 = 0.085 | ZNRF2 = -0.006 | ZPR1 = -0.024 | ZRANB2 = 0.002 | ZW10 = -0.027

C/C(=N\NC(=O)c1cccc(S(=O)(=O)N2CCOCC2)c1)c1cc(Cl)ccc1O
inactive: ZNF787 = -0.118 | ZNF830 = 0.048 | ZNHIT1 = -0.164 | ZNHIT3 = 0.026 | ZNHIT6 = -0.102 | ZNRD1 = -0.157 | ZNRD2 [1] -0.25 | ZNRD2 [2] 0.091 | ZNRF1 isoform 2 = 0.089 | ZNRF2 = 0.055 | ZPR1 = 0.001 | ZRANB2 = -0.067 | ZW10 = 0.075

Cc1ccc(NC(=O)c2ccc(CN3CC[C@H](N(C)C)C3)c(C(F)(F)F)c2)cc1Nc1nccc(-c2cncnc2)n1 [bafetinib]
inactive: ZNF787 = 0.215 | ZNF830 = -0.063 | ZNHIT1 = 0.068 | ZNHIT3 = -0.143 | ZNHIT6 = -0.211 | ZNRD1 = 0.158 | ZNRD2 [1] -0.048 | ZNRD2 [2] -0.015 | ZNRF1 isoform 2 = 0.05 | ZNRF2 = -0.082 | ZPR1 = -0.06 | ZRANB2 = -0.014 | ZSWIM7 = 0.156 | ZW10 = 0.003

From the supplement of paper PMC10849652
